Data taken from the supplement of paper PMC12067093, “Discovery and optimisation of a covalent ligand for TRIM25 and its application to targeted protein ubiquitination” (Chemical Science, 2025).
Some of the results follow.

Chains of the proteins cited; added tags and fusions are not shown. Lines headed by an entry give the natural chain unless they say otherwise; changes in a name come on top.
UniProt P43034: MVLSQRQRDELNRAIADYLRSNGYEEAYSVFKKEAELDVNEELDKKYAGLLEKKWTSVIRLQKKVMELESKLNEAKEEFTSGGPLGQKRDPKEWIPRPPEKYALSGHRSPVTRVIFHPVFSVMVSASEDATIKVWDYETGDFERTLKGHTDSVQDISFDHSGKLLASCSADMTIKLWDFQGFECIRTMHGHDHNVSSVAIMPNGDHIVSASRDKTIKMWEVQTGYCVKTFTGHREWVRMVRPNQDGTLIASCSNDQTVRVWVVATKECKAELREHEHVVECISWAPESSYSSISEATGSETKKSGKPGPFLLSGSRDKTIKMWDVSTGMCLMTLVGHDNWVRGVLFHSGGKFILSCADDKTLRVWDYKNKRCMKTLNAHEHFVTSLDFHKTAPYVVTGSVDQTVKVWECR
UniProt Q9BXW6, whole entry, looked up: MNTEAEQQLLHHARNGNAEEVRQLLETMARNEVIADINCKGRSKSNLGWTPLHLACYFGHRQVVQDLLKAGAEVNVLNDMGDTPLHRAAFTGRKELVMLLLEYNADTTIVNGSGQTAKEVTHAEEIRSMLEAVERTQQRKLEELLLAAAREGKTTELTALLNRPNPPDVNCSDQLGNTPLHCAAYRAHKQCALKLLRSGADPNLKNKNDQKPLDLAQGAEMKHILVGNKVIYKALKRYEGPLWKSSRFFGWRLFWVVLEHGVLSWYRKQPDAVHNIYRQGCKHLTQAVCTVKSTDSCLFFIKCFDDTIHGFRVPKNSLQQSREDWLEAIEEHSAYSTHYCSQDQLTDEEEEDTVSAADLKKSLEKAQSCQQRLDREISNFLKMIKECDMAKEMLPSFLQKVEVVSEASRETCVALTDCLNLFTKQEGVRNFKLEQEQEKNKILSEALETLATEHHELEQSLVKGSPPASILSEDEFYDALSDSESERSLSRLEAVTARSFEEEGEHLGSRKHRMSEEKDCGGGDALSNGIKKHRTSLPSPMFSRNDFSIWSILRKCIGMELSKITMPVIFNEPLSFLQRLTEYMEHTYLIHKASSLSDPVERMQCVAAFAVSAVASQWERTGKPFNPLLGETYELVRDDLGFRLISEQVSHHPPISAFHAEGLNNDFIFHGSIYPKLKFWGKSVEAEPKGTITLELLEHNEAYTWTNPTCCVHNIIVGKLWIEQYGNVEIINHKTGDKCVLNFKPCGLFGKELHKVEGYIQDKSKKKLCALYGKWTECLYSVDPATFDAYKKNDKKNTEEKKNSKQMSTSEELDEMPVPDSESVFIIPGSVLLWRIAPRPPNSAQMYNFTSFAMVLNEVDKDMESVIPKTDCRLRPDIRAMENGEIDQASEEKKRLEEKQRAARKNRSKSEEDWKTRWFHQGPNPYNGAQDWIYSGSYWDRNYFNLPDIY
UniProt Q99571: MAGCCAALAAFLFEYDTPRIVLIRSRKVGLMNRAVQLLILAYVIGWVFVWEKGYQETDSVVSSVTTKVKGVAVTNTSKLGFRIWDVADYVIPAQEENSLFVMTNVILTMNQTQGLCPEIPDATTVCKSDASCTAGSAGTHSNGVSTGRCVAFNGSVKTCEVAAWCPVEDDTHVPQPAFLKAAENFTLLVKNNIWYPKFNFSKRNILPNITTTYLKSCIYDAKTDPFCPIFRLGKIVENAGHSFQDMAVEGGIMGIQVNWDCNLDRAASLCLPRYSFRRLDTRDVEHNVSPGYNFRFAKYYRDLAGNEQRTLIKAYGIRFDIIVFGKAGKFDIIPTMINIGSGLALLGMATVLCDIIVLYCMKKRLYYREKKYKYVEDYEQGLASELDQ
UniProt P07237: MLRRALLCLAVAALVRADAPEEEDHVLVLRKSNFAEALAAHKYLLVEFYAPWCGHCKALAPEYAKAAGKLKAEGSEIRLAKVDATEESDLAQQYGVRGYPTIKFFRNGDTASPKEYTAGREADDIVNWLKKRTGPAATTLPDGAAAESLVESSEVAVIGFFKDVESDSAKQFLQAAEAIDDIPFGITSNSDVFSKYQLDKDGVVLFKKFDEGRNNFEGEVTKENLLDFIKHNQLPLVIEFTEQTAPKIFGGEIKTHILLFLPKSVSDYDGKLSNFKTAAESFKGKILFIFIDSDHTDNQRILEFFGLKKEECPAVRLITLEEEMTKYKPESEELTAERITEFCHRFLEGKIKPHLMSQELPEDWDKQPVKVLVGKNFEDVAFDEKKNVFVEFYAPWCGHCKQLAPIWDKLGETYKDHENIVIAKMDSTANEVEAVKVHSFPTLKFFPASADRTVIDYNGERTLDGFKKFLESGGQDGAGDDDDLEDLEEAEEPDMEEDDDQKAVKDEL
UniProt Q9Y2J8, whole entry, looked up: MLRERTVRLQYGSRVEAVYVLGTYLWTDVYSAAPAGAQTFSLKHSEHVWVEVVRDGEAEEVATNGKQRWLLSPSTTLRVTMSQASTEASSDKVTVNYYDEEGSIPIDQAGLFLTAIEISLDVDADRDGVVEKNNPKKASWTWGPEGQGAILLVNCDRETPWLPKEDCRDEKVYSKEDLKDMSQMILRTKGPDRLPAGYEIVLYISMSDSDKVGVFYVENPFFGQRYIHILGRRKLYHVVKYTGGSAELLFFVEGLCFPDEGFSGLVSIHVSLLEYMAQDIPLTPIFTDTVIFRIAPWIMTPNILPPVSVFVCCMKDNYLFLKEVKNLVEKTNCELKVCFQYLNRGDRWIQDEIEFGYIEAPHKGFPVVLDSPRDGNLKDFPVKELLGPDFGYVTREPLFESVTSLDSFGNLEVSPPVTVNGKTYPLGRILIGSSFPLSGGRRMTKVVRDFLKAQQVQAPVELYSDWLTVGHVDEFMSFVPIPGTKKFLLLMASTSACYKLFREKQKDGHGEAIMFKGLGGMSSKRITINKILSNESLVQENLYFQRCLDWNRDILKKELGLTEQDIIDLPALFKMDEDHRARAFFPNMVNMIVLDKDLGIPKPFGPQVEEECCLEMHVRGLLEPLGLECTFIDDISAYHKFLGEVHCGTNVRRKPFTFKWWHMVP
UniProt Q9H1P3, whole entry, looked up: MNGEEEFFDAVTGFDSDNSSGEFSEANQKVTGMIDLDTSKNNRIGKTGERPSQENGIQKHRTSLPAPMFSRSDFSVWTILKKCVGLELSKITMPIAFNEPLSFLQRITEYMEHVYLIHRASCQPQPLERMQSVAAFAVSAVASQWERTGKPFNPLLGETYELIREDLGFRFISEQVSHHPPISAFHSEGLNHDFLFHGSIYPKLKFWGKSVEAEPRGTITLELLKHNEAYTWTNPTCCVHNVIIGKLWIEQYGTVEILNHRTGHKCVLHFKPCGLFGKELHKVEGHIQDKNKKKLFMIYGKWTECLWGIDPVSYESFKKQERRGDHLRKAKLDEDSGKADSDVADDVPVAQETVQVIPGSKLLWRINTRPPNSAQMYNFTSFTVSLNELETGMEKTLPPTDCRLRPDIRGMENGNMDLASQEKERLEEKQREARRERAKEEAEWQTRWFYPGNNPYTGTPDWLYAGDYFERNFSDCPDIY
UniProt O60890: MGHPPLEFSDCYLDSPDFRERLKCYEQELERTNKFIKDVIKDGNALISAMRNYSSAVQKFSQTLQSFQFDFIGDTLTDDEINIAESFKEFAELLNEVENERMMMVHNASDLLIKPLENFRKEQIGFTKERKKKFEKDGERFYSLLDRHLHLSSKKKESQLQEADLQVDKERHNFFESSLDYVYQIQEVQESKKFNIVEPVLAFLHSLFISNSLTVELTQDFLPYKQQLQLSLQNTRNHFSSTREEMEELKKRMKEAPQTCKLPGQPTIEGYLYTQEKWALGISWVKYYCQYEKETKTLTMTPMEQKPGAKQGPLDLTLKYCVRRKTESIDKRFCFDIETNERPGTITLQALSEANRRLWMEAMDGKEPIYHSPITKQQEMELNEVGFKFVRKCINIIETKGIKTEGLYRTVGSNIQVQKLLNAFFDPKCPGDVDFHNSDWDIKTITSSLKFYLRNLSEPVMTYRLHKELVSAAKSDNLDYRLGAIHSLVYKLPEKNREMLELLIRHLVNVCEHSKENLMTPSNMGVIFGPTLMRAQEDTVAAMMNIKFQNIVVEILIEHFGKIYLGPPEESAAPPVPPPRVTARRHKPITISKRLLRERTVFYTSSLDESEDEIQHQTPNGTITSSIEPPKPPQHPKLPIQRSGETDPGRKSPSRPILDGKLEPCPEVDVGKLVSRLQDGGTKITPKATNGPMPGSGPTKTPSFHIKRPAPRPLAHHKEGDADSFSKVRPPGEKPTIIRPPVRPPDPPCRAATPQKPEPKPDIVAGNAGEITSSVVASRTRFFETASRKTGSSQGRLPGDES
UniProt P22234: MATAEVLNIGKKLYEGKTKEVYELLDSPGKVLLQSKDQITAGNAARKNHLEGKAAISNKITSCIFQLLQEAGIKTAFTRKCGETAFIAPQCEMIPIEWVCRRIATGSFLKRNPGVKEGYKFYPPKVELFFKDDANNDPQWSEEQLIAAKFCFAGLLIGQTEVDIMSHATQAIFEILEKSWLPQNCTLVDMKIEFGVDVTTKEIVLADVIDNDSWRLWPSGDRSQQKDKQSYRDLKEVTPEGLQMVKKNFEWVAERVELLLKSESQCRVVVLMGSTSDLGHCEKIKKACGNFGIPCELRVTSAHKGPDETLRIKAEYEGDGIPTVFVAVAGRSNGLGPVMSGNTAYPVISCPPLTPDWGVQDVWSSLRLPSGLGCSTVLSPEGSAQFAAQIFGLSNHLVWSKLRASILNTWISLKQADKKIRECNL
UniProt Q8N573: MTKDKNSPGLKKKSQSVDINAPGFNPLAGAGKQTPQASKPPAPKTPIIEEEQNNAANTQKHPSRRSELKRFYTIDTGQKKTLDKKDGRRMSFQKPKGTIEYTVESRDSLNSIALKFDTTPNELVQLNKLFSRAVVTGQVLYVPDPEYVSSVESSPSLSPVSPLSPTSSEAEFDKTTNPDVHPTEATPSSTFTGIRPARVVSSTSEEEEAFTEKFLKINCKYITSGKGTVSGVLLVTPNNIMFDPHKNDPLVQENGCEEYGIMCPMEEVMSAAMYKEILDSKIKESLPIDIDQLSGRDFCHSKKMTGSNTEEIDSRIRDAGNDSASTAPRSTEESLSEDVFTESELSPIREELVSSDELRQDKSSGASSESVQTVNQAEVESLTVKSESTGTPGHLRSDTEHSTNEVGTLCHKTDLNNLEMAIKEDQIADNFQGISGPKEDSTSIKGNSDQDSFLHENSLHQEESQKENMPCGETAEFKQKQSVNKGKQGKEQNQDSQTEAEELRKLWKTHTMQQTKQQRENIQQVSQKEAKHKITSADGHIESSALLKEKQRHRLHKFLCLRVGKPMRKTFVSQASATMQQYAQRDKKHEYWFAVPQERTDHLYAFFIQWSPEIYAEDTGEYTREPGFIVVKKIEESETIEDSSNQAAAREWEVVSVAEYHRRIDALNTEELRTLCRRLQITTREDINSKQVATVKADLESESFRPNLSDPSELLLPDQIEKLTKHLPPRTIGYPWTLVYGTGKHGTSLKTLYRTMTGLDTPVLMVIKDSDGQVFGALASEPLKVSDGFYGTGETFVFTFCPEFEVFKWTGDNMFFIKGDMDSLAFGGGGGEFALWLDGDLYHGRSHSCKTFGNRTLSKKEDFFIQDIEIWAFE
UniProt O60313: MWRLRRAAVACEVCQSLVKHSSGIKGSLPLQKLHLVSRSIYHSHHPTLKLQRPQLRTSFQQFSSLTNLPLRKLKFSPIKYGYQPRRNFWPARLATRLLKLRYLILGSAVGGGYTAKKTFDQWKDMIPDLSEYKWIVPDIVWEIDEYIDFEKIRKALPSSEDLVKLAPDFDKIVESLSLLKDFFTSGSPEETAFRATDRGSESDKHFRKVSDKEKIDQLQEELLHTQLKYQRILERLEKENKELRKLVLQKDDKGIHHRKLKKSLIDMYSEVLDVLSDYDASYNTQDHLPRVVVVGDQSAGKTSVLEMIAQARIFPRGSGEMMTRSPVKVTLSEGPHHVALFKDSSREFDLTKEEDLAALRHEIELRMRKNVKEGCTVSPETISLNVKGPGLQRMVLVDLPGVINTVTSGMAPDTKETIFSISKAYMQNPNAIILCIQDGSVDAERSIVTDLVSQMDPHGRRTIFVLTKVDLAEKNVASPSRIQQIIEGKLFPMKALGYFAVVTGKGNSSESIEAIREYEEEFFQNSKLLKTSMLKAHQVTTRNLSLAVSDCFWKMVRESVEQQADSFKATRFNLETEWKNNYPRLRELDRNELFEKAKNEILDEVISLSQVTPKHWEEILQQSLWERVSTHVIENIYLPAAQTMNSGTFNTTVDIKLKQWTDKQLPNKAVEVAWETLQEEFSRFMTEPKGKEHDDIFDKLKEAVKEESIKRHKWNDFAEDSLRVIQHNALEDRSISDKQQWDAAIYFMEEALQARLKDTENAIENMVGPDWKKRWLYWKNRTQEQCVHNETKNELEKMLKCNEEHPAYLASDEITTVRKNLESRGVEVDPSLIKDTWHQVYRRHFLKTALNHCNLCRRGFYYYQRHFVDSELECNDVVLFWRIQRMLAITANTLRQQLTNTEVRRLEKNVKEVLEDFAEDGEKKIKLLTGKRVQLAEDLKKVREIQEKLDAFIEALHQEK

Compound: CC1Cc2ccccc2N1C(=O)C1CCCN(C1)C(=O)CCl (mixture of isomers) [TRIM25 ligand 11 (diastereomer mixture)]
Experiment: probe-labelled cysteine peptide fold change vs DMSO (competition) (log2 fold change); higher = less target engagement (more negative = stronger competition)
Details: THP-1, incubation time: 4 h
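Further: competitive chemoproteomic profiling in live THP-1 cells with an iodoacetamide desthiobiotin (IA-DTB) probe, comparing probe-labelled peptide intensities in compound-treated cells against DMSO-treated controls.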

Row | Target | probe-labelled cysteine peptide fold change (10 µM) | probe-labelled cysteine peptide fold change (50 µM)
1 | PAFAH1B1_P43034_252_MVRPNQDGTLIASCSNDQTVR (UniProt P43034) | 0.142 | 0.0289
2 | PARP10_Q53GL7_50_LGCGGVLTFR (UniProt Q53GL7) | 0.0678 | -0.0422
3 | PAOX_Q6QHF9_33_LCGHSAFPHLR (UniProt Q6QHF9) | -0.0546 | 0.0391
4 | OTULINL_Q9NUU6_226_GSMCNTLFSDAILEYK (UniProt Q9NUU6) | 0.286 | 0.152
5 | PAPSS1_O43252_212_TDSCDVNDCVQQVVELLQER (UniProt O43252) | -0.323 | -0.237
6 | PAPOLA_P51003_118_GADIDALCVAPR (UniProt P51003) | 0.0762 | 0.0015
7 | OSBPL1A_Q9BXW6_56_SNLGWTPLHLACYFGHR (UniProt Q9BXW6) | -0.158 | 0.106
8 | P2RX4_Q99571_132_SDASCTAGSAGTHSNGVSTGR (UniProt Q99571) | 0.113 | -0.224
9 | P4HB_P07237_397_NVFVEFYAPWCGHCK (UniProt P07237) | -0.0102 | -0.376
10 | OSGEPL1_Q9H4B0_390_CPLGVDISK (UniProt Q9H4B0) | -0.0159 | -0.106
11 | PACSIN2_Q9UNF0_465_MEDEDEQGWCK (UniProt Q9UNF0) | 0.118 | 0.00577
12 | PABPC1_P11940_132_VVCDENGSK (UniProt P11940) | 0.0624 | 0.0803
13 | PAN3_Q58A45_838_DHLFHQVTEAGAPWIDLSHIISCLNK (UniProt Q58A45) | 0.057 | 0.184
14 | OGT_O15294_68_QEPDNTGVLLLLSSIHFQCR (UniProt O15294) | 0.262 | 0.329
15 | PADI2_Q9Y2J8_629_GLLEPLGLECTFIDDISAYHK (UniProt Q9Y2J8) | 0.0551 | 0.0618
16 | OSBPL1A_Q9BXW6_289_HLTQAVCTVK (UniProt Q9BXW6) | 0.0658 | -0.122
17 | OSBPL2_Q9H1P3_266_CVLHFKPCGLFGK (UniProt Q9H1P3) | -0.162 | 0.13
18 | OPHN1_O60890_24_CYEQELER (UniProt O60890) | 0.0531 | 0.0319
19 | P4HB_P07237_312_KEECPAVR (UniProt P07237) | 0.02 | -0.00472
20 | PAPSS1_O43252_295_EREYLQCLHFDCLLDGGVINLSVPIVLTATHEDK (UniProt O43252) | 0.236 | 0.317

2 entries picked at random from the list so far:
Row | Target | probe-labelled cysteine peptide fold change (10 µM) | probe-labelled cysteine peptide fold change (50 µM)
9 | P4HB_P07237_397_NVFVEFYAPWCGHCK (UniProt P07237) | -0.0102 | -0.376
18 | OPHN1_O60890_24_CYEQELER (UniProt O60890) | 0.0531 | 0.0319

Next records follow.

Row | Target | probe-labelled cysteine peptide fold change (10 µM) | probe-labelled cysteine peptide fold change (50 µM)
21 | P4HB_P07237_343_ITEFCHR (UniProt P07237) | -0.0335 | -0.0224
22 | OSBPL1A_Q9BXW6_297_STDSCLFFIK (UniProt Q9BXW6) | 0.0458 | 0.151
23 | OSBPL2_Q9H1P3_273_CVLHFKPCGLFGK (UniProt Q9H1P3) | -0.023 | 0.205
24 | PAICS_P22234_266_SESQCR (UniProt P22234) | 1.85 | 1.12
25 | PAPSS1_O43252_8_MEIPGSLCK (UniProt O43252) | 0.0757 | 0.118
26 | PABPC4_Q13310-3_488_VGSECPDR (UniProt Q13310) | -0.118 | -0.166
27 | PAFAH1B1_P43034_281_EHEHVVECISWAPESSYSSISEATGSETK (UniProt P43034) | -0.156 | 0.158
28 | PALD1_Q9ULE6_118_MDVLGTVGSCGAPNFR (UniProt Q9ULE6) | 0.187 | -0.0802
29 | OXR1_Q8N573_471_ENMPCGETAEFK (UniProt Q8N573) | -0.114 | -0.146
30 | ORC1_Q13415_253_RLELGNLGNPQMSQQTSCASLDSPGR (UniProt Q13415) | -0.369 | -0.256
31 | PADI2_Q9Y2J8_612_PFGPQVEEECCLEMHVR (UniProt Q9Y2J8) | -0.0491 | 0.0649
32 | PARP14_Q460N5_849_AAGPELQADCDQIVK (UniProt Q460N5) | -0.027 | -0.253
33 | OXR1_Q8N573_410_SDTEHSTNEVGTLCHK (UniProt Q8N573) | 0.217 | 0.00313
34 | P2RX4_Q99571_270_AASLCLPR (UniProt Q99571) | 0.0409 | -0.0989
35 | OSBPL8_Q9BZF1_575_GEDYVMTMPYAHCK (UniProt Q9BZF1) | 0.126 | 0.0805
36 | OPA1_O60313_786_TQEQCVHNETK (UniProt O60313) | -0.0558 | -0.14
37 | PAICS_P22234_91_CGETAFIAPQCEMIPIEWVCR (UniProt P22234) | 0.291 | 0.222
38 | PARG_Q86W56_608_IALCLPNICTQPIPLLK (UniProt Q86W56) | 0.0871 | 0.101
39 | P3H1_Q32P28_670_CAIALWFTLDPR (UniProt Q32P28) | -0.273 | -0.233
